# In PubChem BioAssay AID504834 (National Center for Advancing Translational Sciences (NCATS), 2011):
# The whole screen tested about 320,000 compounds, of which about 22,000 (6.9%) were called active. Inconclusive results, whose numbers are uncertain, are shown with a selection of clear calls. Calls come from the whole dose curve; as a rule, active = well fitted inhibition curve with a large enough effect; inconclusive = small, poorly fitted or top-dose-only effect, or another doubt; inactive = no such curve, though single readings can be large or run the other way. Potencies of inconclusive entries are doubtful fits and often do not repeat.
# Test: Primary qHTS for delayed death inhibitors of the malarial parasite plastid, 96 hour incubation
# Settings: P. falciparum luciferase reporter growth; series mostly up to 28.7 µM; activity change, negative = inhibition: at the top concentration
# Outline: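 Readout is luminescence from an integrated firefly luciferase in P. falciparum. Red cells, 2% hematocrit and 0.05% parasitemia final, were cultured with compound through two parasite generations (96 hours) at 37 C, 5% CO2.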
# % is set by controls: 0 for no effect and ±100 for the full control effect; potency is the fitted concentration of half-maximal effect.
SMILES,Potency,"activity change, negative = inhibition"
Cc1cc(/C([O-])=C(/C(=S)Nc2ccc(F)cc2)[n+]2ccccc2)c(C)n1Cc1ccccc1Cl,active: 9.28 µM,
Cc1cc(F)ccc1S(=O)(=O)Nc1ccccc1C(=O)NC1CCN(Cc2ccccc2)CC1,active: 3.29 µM,
Cc1cccc(S(=O)(=O)NCCNS(=O)(=O)c2cccc(C)c2)c1,,inactive: -13.5%
O=[N+]([O-])c1ccc(N/N=C/c2cccc(O)c2)cc1,"inconclusive: 1.85 µM [inhibitor, partial curve, poor fit]",
CCN(CC)CCOC(=O)c1ccc(NC(=O)c2ccc(Cl)c(S(=O)(=O)N3CCCCCC3)c2)cc1,active: 4.15 µM,
CCC(=O)N(CCc1ccc(S(N)(=O)=O)cc1)C1CC(=O)N(c2ccc(OC)cc2)C1=O (stereo not given),,inactive: 14.4%
Cn1nc2c3ccccc3n(Cc3ccccc3)c2nc1=S,,inactive: -23.4%
Cc1ccc(S(=O)(=O)N2CC(=NN=C(N)N)C2)cc1,"inconclusive: 18.5 µM [inhibitor, single point]",
O=C(CC1Sc2ccccc2NC1=O)Nc1ccccc1[N+](=O)[O-] (stereo not given),,inactive: -25.3%
CCOc1cccc(-c2c(C(=O)N/N=C/c3cccs3)nnn2-c2nonc2N)c1,"inconclusive: 10.4 µM [inhibitor, single point]",
N#Cc1ccc(CSC2=NCCN2)cc1,"inconclusive: 18.5 µM [inhibitor, single point]",
CCOc1ccc(CCNC(=O)C2CC(=O)N(c3ccc4c(c3)OCCO4)C2)cc1OCC (stereo not given),active: 3.29 µM,
Cn1nc(-c2ccc(Cl)cc2)c2cc(C(=O)NCCCN3CCCC3)sc21,"inconclusive: 7.38 µM [inhibitor, partial curve]",
COc1ccc(C(=O)N(c2ccc(C)cc2)C2C=CS(=O)(=O)C2)cc1OC (stereo not given),"inconclusive: 18.5 µM [inhibitor, single point]",
CCN(CC)S(=O)(=O)c1ccc(C(=O)NCCOC(=O)c2ccc(F)cc2F)cc1,"inconclusive: 11.7 µM [inhibitor, partial curve, poor fit]",
Cc1ccc2c(c1)C1CN(C)CCC1N2S(=O)(=O)c1ccccc1 (stereo not given),"inconclusive: 0.828 µM [inhibitor, full curve, poor fit]",
COC(=O)C1=C(C)N(Cc2ccco2)C(=O)N[C@@H]1c1cccc(C(F)(F)F)c1,"inconclusive: 18.5 µM [inhibitor, single point]",
Cc1onc(-c2c(F)cccc2Cl)c1C(=O)NCCO,"inconclusive: 3.7 µM [inhibitor, partial curve, poor fit]",
COc1cccc(CN2CCNC(=O)C2CC(=O)N(C)Cc2cnccn2)c1OC (stereo not given),,inactive: 6.42%
COc1ccc(C(=O)SC2=NCCS2)cc1,"inconclusive: 18.5 µM [inhibitor, partial curve, poor fit]",
Cc1ccc2nc(NC3=NCN(Cc4cccnc4)CN3)nc(C)c2c1,"inconclusive: 0.928 µM [inhibitor, full curve, poor fit]",
CCOC(=O)c1c(/N=C/c2c(O)n(-c3cccc(C)c3)c(=O)[nH]c2=O)sc2c1CCCC2,"inconclusive: 18.5 µM [inhibitor, single point]",
CCN(CC(=O)Nc1ccccc1C(F)(F)F)C(=O)c1ccc2[nH]c3c(c2c1)CC(C)CC3 (stereo not given),"inconclusive: 7.38 µM [inhibitor, single point]",
Cc1ccc(/C=C/C(=O)Nc2nn[nH]n2)o1,"inconclusive: 14.7 µM [inhibitor, single point]",

# Three entries out of the list, ordered by heavy-atom count, high to low.
SMILES,Potency,"activity change, negative = inhibition"
CCN(CC(=O)Nc1ccccc1C(F)(F)F)C(=O)c1ccc2[nH]c3c(c2c1)CC(C)CC3 (stereo not given),"inconclusive: 7.38 µM [inhibitor, single point]",
COc1cccc(CN2CCNC(=O)C2CC(=O)N(C)Cc2cnccn2)c1OC (stereo not given),,inactive: 6.42%
N#Cc1ccc(CSC2=NCCN2)cc1,"inconclusive: 18.5 µM [inhibitor, single point]",

# Additional results:

SMILES,Potency,"activity change, negative = inhibition"
O=C(c1ccco1)N1CCN(Cc2cc(=O)c(OCc3ccccc3Cl)co2)CC1,"inconclusive: 7.38 µM [inhibitor, partial curve, poor fit]",
Cc1ccc(O)c(CNCCNCc2cc(C)ccc2O)c1,active: 2.62 µM,
Cn1cc(S(=O)(=O)c2ccccc2)c(=O)c2cc(F)c(N3CCOCC3)cc21,"inconclusive: 6.57 µM [inhibitor, partial curve, poor fit]",
Cc1cc(OCC(=O)NNC(=O)c2cnccn2)cc(C)c1Cl,active: 11.7 µM,
CCN(CC(=O)Nc1c(F)cccc1F)C(=O)c1ccc(Sc2nncn2C)c([N+](=O)[O-])c1,,inactive: -19.5%
Cc1nn(Cc2ccccc2)c(C)c1C(=O)O,,inactive: -9.62%
O=C(COc1ccc(Cl)cc1Br)NCC(c1ccco1)N1CCCC1 (stereo not given),"inconclusive: 18.5 µM [inhibitor, single point]",
CCN(CC)c1ccc(CNC23CN4CN(CN(C4)C2)C3)cc1,"inconclusive: 14.7 µM [inhibitor, partial curve, poor fit]",
CCn1nc(C)cc1C(=O)Sc1cccc(Cl)c1,,inactive: 28.3%
COc1ccc(C2NCCc3c2[nH]c2ccccc32)cc1COc1ccc(F)cc1 (stereo not given),"inconclusive: 11.7 µM [inhibitor, single point]",
N#C/C(=N\Nc1ccc(Cl)cc1)C(N)=S,"inconclusive: 18.5 µM [inhibitor, single point]",
O=[N+]([O-])c1cccc(S(=O)(=O)c2ccc(N3CCCCC3)c([N+](=O)[O-])c2)c1,,inactive: -4.91%
Nn1c(SCC(=O)N2CCOCC2)nnc1-c1ccccc1Cl,"inconclusive: 3.7 µM [inhibitor, partial curve, poor fit]",
CC(CCc1ccccc1)NC(=O)CN1CCN(c2ccc(O)cc2)CC1 (stereo not given),"inconclusive: 18.5 µM [inhibitor, single point]",
O=S(=O)(c1cccc(F)c1)N1CCN(c2ncnc3scc(-c4ccc(F)cc4)c23)CC1,"inconclusive: 4.15 µM [inhibitor, partial curve]",
CCC1(C)COC(C)(CC(=O)NNC(=O)Nc2ccccc2)OC1 (stereo not given),"inconclusive: 9.28 µM [inhibitor, single point]",
O=C1CC[C@@H](OCc2ccccc2)CCN1CC[C@H](Sc1ccccc1)c1ccccc1,,inactive: 0%
COc1ccc(/C=C/C(=O)NCc2ccc(F)cc2)cc1S(=O)(=O)N1CCOCC1,"inconclusive: 13.1 µM [inhibitor, partial curve, poor fit]",
CN(C)CCCNc1nc2sc3c(c2c(=O)n1CCc1ccccc1)CCCCC3,active: 4.15 µM,
CCOC(=O)C1CN(S(=O)(=O)c2ccc(C)cc2)CCN1S(=O)(=O)c1ccc(C)cc1 (stereo not given),active: 14.7 µM,
CC1CCC(NC(=O)c2cnccn2)CC1 (stereo not given),"inconclusive: 18.5 µM [inhibitor, single point]",
CCCSc1nsc(NC(=O)CC)n1,active: 8.28 µM,
CCOc1c(C(=O)CC)cc2c(C)cc(=O)oc2c1C,"inconclusive: 8.28 µM [inhibitor, partial curve, poor fit]",
Cc1nc2cc(C(=O)N3CCN(C)CC3)ccc2n1C,"inconclusive: 13.1 µM [inhibitor, single point]",

SMILES,Potency,"activity change, negative = inhibition"
N#CC1(c2ccccc2)CCCN1C(=O)c1ccccc1Br (stereo not given),"inconclusive: 10.4 µM [inhibitor, single point]",
CCc1ccc(CN(C)Cc2nc(Cc3cccc(C(F)(F)F)c3)no2)nc1,,inactive: 0.504%
O=C(C1=C(O)C(=O)N(CC2CCCO2)C1c1ccccc1Cl)c1ccco1 (stereo not given),,inactive: -5.2%
O=C(NCCNc1ccc([N+](=O)[O-])cc1)c1cccs1,"inconclusive: 1.85 µM [inhibitor, full curve]",
Cn1cc(CN2CCCC(CNC(=O)c3ccc4c(c3)OCO4)C2)c2ccccc21 (stereo not given),"inconclusive: 13.1 µM [inhibitor, single point]",
CN(C)CCCNC(=O)c1cc(C(=O)C2CCCCC2)c[nH]1,"inconclusive: 4.15 µM [inhibitor, partial curve, poor fit]",
CCCCNC(=O)CN(Cc1ccco1)S(=O)(=O)c1ccc(C(C)=O)cc1,,inactive: 30%
COc1ccc(N2CCN(C(=O)NCc3ccc(C)cc3)CC2)cc1,,inactive: 26.5%
Cc1cc(C(=O)Nc2ccc(OCc3ccccc3)cc2)c(C)o1,,inactive: 27.6%
O=C1c2ccsc2SCCN1Cc1c(F)cccc1Cl,"inconclusive: 9.28 µM [inhibitor, single point]",
CC1CCc2cc(F)ccc2N1S(=O)(=O)c1ccc(F)cc1 (stereo not given),"inconclusive: 3.7 µM [inhibitor, full curve, poor fit]",
O=C(C1=C[C@H](c2ccc(C(F)(F)F)cc2)C[C@H](OCc2ccc(CO)cc2)O1)N1CCN(Cc2ccc3c(c2)OCO3)CC1,active: 3.7 µM,
CCN(CC)c1ccc(/C=N/NC(=O)CNC(=O)c2ccccn2)cc1,,inactive: -31.2%
OCCC1CN(Cc2ccc3nsnc3c2)CCN1C1CCCCC1 (stereo not given),active: 10.4 µM,
COC(=O)c1c(C)noc1-c1ccc(Cl)cc1,,inactive: 17.4%
CCn1c(SCC(=O)NC2CCCC2)nnc1C(C)NC(=O)c1ccccc1Br (stereo not given),"inconclusive: 10.4 µM [inhibitor, single point]",
Nc1nnn(CC(=O)N/N=C/c2cccc(Cl)c2)n1,,inactive: 32.5%
O=C(Nc1cc(Cl)ccc1-n1cncn1)c1ccc([N+](=O)[O-])s1,"inconclusive: 2.62 µM [inhibitor, full curve, poor fit]",
CC(=O)c1c(C)[nH]c(C(=O)OCc2ccc(F)cc2Cl)c1C,"inconclusive: 18.5 µM [inhibitor, single point]",
O=C(NCCc1ccc(Cl)cc1)C(=O)Nc1cc2c3c(c1)CC(=O)N3CCC2,"inconclusive: 5.22 µM [inhibitor, partial curve, poor fit]",
Cc1ccc(NC(=O)COC(=O)CSC(=S)N2CCOCC2)cc1,"inconclusive: 0.522 µM [inhibitor, full curve, poor fit]",
CCCC12C(=O)C(C)(C(c3ccccc3)=C1c1ccccc1)C1C(=O)N(c3ccc(C)cc3)C(=O)C12 (stereo not given),active: 3.29 µM,

# Of the compounds above, these contain a cyano group:
SMILES,Potency,"activity change, negative = inhibition"
N#Cc1ccc(CSC2=NCCN2)cc1,"inconclusive: 18.5 µM [inhibitor, single point]",
N#C/C(=N\Nc1ccc(Cl)cc1)C(N)=S,"inconclusive: 18.5 µM [inhibitor, single point]",
N#CC1(c2ccccc2)CCCN1C(=O)c1ccccc1Br (stereo not given),"inconclusive: 10.4 µM [inhibitor, single point]",
